No constants are given. Whether binding was seen depends on the method and setting. In cells and extracts the contact can be indirect. These calls come from enrichment with a bait or labelling near it, and not all partners need be listed. Where a sequence is shown, tags or fusion partners need not be part of it.
B1: Proline-tRNA ligase (protein, UniProt O31755 1-564)
chain: MRQSLTLIPTLREVPADAEAKSHQLLLRAGFIRQNTSGVYSYMPLAYKVIQNIQQIVREEMEKIDAVEMLMPALQQAETWQESGRWYTYGPELMRLKDRHGREFALGATHEEVITSLVRDEVKSYKRLPLTLYQIQSKFRDEKRPRFGLLRGREFIMKDAYSFHASAESLDETYQKMYEAYSNIFARCGINVRPVIADSGAMGGKDTHEFMALSAIGEDTIAYSDESQYAANIEMAEVLHQEVPSDEEPKALEKVHTPNVKTIEELTAFLQVSAEACIKSVLFKADDRFVLVLVRGDHEVNDIKVKNLLHAEVVELATHEEVIQQLGTEPGFVGPVGIHQDVEVYADQAVKAMVNAVAGANEGDHHYKNVNVNRDAQIKEFADLRFIKEGDPSPDGKGTIRFAEGIEVGQVFKLGTRYSEAMNATYLDENGRAQPMLMGCYGIGVSRTLSAIAEQHHDEKGLIWPKSVAPYDLHILALNMKNDGQRELAEKLYADLKAEGYEVLYDDRAERAGVKFADSDLIGLPIRITVGKRADEGIVEVKIRQTGESTEISVDELSAFISKQ
B2: Oligopeptide transport ATP-binding protein AppD (protein, UniProt P42064 1-328)
chain: MSTLLEVNNLKTYFFRKKEPIPAVDGVDFHISKGETVALVGESGSGKSITSLSIMGLVQSSGGKIMDGSIKLEDKDLTSFTENDYCKIRGNEVSMIFQEPMTSLNPVLTIGEQITEVLIYHKNMKKKEARQRAVELLQMVGFSRAEQIMKEYPHRLSGGMRQRVMIAIALSCNPKLLIADEPTTALDVTIQAQVLELMKDLCQKFNTSILLITHDLGVVSEAADRVIVMYCGQVVENATVDDLFLEPLHPYTEGLLTSIPVIDGEIDKLNAIKGSVPTPDNLPPGCRFAPRCPKAMDKCWTNQPSLLTHKSGRTVRCFLYEEEGAEQS
B3: 2-methylisocitrate lyase (protein, UniProt P54528 1-301)
chain: MSWIVNKQSSQEELAGRFRKLMSAPDILQIPGAHDGMAALLAKEAGFSAIYLSGAAYTASRGLPDLGIITSAEIAERAKDLVRAADLPLLVDIDTGFGGVLNAARTAREMLEARVAAVQMEDQQLPKKCGHLNGKQLVPIKEMAQKIKAIKQAAPSLIVVARTDARAQEGLDAAIKRSEAYIEAGADAIFPEALQAENEFRQFAERIPVPLLANMTEFGKTPYYRADEFEDMGFHMVIYPVTSLRAAAKACERMFGLMKEHGSQKEGLHDMQTRKELYDTISYYDYEALDKTIAKTVLPDE
B4: Amidophosphoribosyltransferase (protein, UniProt P00497 12-476)
chain: CGVFGIWGHEEAPQITYYGLHSLQHRGQEGAGIVATDGEKLTAHKGQGLITEVFQNGELSKVKGKGAIGHVRYATAGGGGYENVQPLLFRSQNNGSLALAHNGNLVNATQLKQQLENQGSIFQTSSDTEVLAHLIKRSGHFTLKDQIKNSLSMLKGAYAFLIMTETEMIVALDPNGLRPLSIGMMGDAYVVASETCAFDVVGATYLREVEPGEMLIINDEGMKSERFSMNINRSICSMEYIYFSRPDSNIDGINVHSARKNLGKMLAQESAVEADVVTGVPDSSISAAIGYAEATGIPYELGLIKNRYVGRTFIQPSQALREQGVRMKLSAVRGVVEGKRVVMVDDSIVRGTTSRRIVTMLREAGATEVHVKISSPPIAHPCFYGIDTSTHEELIASSHSVEEIRQEIGADTLSFLSVEGLLKGIGRKYDDSNCGQCLACFTGKYPTEIYQDTVLPHVKEAVLTK

Each binder was assayed against T1, GST-PrkC (Serine/threonine-protein kinase PrkC) (Bacillus subtilis str. 168) (UniProt O34507) (assay: affinity purification with mass spectrometry; GST-PrkC on glutathione resin incubated with B. subtilis spore lysate at 4 °C; resin washed; bound proteins eluted with 20 mM reduced glutathione; eluate digested with trypsin and analysed by LC-MS/MS; hits filtered at 1% FDR, >=2 unique peptides; only the target purified).
T1 sequence: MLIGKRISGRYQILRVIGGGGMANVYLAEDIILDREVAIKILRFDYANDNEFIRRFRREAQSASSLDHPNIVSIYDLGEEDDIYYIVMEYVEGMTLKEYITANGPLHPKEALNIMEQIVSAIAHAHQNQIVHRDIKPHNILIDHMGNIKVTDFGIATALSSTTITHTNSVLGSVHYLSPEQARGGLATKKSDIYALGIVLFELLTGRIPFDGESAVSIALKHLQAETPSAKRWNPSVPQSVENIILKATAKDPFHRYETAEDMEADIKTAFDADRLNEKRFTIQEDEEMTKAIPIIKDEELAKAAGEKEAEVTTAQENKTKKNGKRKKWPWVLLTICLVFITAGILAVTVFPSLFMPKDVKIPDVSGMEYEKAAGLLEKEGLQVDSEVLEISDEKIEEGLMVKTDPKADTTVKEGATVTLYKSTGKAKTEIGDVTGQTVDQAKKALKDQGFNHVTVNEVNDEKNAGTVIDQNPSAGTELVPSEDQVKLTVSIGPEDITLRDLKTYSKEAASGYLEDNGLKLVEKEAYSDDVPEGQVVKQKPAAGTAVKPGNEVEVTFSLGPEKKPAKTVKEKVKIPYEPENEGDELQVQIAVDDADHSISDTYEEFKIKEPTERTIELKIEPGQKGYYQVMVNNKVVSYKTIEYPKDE

Row | Binder | binding
1 | B1 | binds
2 | B2 | binds
3 | B3 | binds
4 | B4 | binds
